The other results are listed elsewhere or left out.
Each target was assayed with NC(=O)Nc1cc(-c2cccc(F)c2)sc1C(=O)N[C@H]1CCCNC1 (assay: log2 fold change, soluble protein after heating vs DMSO (PISA); higher = thermal stabilisation; K562 cells, 10 uM, 30 min; active = over 0.2 and 3.5 SD of the protein, either way, in both replicates (recomputed)).
Outline: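 Thermal stability values are relative to control samples and come from duplicates. They are expressed as log2 fold changes. For measurement, K562 cells (2×10^6 cells/mL) received 10 μM compound for 30 min, and aliquots were heated for 3 min over 48°C-58°C, pooled, and extracted at 4°C in PBS with 0.5% NP-40. Soluble protein, the supernatant after 21,000xg for 90 min, was quantified by TMTpro 16plex LC-MS/MS with equalised channel sums.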

Protein sequences, listed by entry. Tags and fused reporters are not part of them. Lines headed by an entry give the natural chain unless they say otherwise; changes in a name come on top.
UniProt Q16890: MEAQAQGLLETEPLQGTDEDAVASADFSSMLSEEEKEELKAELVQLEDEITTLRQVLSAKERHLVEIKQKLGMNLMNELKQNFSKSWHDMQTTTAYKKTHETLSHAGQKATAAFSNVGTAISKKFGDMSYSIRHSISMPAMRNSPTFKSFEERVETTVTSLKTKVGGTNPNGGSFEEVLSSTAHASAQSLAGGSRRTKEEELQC
UniProt P62995: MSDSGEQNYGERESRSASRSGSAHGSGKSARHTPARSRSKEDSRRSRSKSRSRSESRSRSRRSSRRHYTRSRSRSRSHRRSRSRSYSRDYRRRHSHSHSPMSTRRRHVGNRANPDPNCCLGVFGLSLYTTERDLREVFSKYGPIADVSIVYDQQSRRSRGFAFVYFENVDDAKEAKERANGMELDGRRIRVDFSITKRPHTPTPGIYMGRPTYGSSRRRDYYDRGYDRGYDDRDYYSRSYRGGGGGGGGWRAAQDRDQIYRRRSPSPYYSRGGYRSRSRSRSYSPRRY
UniProt O43715: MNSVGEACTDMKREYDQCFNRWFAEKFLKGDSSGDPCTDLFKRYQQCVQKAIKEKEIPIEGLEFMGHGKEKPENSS
UniProt Q15642: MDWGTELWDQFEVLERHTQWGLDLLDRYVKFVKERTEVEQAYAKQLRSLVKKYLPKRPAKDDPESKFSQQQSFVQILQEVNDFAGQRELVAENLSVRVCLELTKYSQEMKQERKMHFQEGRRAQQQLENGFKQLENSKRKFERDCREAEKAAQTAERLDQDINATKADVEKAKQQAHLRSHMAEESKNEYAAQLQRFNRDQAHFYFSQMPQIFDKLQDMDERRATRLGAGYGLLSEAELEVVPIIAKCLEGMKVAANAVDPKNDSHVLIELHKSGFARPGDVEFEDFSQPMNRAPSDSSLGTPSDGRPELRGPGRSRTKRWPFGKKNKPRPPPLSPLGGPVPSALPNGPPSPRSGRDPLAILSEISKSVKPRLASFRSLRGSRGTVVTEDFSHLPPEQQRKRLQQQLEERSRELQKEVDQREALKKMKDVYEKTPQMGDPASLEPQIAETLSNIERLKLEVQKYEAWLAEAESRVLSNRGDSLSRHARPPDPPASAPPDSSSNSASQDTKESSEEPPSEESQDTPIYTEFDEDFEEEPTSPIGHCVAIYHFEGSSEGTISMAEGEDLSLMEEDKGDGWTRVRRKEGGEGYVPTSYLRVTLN
UniProt P67936, whole entry, looked up: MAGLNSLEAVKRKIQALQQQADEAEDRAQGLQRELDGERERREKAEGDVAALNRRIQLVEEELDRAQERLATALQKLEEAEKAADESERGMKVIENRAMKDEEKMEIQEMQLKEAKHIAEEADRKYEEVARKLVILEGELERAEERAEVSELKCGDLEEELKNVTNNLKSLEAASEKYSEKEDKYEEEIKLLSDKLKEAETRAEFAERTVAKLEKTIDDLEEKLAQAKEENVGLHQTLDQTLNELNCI
UniProt Q8NCE0: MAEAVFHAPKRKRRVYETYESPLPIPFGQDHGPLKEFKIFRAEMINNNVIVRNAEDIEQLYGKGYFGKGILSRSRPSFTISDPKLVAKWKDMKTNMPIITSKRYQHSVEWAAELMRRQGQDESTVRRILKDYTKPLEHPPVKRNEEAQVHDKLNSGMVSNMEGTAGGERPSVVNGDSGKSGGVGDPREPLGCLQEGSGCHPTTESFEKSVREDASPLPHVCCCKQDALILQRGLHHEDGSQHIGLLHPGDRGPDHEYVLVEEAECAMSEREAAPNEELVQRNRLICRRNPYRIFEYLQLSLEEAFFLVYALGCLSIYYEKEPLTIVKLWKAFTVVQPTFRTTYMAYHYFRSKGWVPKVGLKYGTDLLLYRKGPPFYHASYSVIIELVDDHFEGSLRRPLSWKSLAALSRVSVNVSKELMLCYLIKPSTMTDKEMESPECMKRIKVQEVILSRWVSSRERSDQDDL
UniProt Q9ULW0, whole entry, looked up: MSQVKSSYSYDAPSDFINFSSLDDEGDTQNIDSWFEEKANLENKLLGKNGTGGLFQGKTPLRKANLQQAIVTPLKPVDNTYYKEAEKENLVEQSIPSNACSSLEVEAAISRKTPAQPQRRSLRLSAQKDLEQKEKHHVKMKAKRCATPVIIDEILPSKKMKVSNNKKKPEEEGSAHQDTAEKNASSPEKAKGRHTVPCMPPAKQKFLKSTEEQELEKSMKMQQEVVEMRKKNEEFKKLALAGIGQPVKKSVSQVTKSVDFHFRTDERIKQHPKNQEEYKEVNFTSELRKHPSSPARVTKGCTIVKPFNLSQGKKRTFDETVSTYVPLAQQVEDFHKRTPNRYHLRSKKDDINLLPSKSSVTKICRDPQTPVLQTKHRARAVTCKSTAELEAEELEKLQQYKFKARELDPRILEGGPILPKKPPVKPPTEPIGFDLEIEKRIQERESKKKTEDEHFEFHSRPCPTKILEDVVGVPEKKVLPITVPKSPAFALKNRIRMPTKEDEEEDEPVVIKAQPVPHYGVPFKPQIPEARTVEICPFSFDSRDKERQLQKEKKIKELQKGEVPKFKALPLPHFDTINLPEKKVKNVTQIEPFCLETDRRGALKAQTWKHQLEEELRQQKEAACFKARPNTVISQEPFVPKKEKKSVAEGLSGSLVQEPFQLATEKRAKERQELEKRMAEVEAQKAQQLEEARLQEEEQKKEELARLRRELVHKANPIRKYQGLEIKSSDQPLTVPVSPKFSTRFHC
UniProt O60704: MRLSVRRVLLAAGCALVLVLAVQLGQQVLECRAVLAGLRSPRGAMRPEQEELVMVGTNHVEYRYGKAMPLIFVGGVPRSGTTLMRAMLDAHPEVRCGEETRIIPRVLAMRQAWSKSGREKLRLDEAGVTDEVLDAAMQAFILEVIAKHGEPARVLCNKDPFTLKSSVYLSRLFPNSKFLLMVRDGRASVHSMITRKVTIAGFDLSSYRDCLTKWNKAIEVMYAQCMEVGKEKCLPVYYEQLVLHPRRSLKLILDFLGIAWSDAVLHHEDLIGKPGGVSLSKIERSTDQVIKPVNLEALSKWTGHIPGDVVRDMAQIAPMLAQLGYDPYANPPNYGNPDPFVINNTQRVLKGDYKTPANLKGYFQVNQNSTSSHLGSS
UniProt O14656: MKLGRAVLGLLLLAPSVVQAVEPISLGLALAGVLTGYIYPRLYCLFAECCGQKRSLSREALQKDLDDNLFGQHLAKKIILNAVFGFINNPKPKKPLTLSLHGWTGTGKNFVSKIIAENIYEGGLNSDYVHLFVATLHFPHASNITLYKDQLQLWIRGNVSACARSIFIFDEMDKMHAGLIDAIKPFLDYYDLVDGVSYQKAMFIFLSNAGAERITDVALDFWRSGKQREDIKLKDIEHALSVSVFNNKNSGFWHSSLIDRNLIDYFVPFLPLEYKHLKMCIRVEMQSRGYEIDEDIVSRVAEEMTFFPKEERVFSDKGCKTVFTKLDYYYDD
UniProt Q9NUP7: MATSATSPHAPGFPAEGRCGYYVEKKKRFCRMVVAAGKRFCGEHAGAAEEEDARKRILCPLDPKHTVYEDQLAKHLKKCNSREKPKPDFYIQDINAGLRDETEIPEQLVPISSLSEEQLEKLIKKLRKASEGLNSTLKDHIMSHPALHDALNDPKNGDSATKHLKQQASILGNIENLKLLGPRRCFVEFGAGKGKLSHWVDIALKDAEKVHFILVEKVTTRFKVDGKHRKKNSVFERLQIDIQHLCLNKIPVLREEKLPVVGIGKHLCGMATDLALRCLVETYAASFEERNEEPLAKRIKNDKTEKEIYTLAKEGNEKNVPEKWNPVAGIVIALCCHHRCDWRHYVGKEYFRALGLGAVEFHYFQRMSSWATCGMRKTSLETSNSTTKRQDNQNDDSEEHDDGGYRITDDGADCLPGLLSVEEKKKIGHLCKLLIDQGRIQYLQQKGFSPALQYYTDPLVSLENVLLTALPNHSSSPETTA
UniProt P51580: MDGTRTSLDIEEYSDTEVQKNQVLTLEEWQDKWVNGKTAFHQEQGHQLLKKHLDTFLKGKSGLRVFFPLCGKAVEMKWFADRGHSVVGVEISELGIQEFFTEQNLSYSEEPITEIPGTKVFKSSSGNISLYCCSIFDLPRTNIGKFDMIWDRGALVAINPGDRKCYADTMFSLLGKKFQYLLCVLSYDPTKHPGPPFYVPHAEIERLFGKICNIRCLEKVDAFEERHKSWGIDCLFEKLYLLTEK
UniProt Q9NXH8: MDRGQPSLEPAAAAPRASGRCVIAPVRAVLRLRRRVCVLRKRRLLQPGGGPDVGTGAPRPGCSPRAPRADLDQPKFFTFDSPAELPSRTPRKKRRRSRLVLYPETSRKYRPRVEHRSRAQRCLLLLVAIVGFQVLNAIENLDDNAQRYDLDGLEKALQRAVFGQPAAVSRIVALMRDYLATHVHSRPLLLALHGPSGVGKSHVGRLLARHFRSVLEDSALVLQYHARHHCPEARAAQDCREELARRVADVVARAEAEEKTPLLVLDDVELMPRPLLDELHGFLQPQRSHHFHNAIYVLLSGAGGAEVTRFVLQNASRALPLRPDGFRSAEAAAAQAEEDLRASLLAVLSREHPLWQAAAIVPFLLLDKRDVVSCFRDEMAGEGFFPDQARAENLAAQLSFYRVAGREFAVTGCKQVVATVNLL
UniProt Q7Z392: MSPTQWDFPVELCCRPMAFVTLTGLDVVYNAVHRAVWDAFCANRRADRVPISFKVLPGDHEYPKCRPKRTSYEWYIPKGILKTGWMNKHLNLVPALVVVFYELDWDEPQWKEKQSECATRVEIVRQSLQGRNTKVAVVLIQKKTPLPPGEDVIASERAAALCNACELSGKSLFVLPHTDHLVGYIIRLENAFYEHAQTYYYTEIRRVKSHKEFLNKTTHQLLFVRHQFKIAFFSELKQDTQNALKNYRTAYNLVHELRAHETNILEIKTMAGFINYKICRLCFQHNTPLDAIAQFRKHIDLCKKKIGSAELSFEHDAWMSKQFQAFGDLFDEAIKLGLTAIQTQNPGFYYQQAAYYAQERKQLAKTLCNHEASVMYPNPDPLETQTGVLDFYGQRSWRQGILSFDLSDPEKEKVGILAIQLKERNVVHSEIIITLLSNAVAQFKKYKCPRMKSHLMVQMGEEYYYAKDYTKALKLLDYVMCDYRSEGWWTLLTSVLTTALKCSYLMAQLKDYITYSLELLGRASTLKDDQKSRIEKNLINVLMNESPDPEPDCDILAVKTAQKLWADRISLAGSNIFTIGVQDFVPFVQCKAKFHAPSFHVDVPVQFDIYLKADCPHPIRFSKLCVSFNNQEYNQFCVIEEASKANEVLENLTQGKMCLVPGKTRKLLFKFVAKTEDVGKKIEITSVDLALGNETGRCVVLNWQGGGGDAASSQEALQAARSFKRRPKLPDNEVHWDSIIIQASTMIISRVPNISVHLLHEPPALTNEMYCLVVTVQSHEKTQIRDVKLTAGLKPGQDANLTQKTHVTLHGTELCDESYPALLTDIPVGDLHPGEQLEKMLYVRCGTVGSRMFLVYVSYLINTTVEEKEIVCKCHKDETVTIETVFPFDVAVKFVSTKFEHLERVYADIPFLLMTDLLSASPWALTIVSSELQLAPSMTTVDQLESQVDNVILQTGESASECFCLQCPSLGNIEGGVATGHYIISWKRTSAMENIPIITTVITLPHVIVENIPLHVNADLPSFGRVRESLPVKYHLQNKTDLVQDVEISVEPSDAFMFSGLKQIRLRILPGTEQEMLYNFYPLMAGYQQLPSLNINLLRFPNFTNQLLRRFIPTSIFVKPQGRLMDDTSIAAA
UniProt Q9NS69: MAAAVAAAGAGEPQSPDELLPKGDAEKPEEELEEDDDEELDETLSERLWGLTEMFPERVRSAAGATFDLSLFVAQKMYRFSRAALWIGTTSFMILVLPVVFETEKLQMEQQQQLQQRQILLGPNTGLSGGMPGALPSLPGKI
UniProt Q8N4H5: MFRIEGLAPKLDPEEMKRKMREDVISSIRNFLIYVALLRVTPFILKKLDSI
UniProt O60784, whole entry, looked up: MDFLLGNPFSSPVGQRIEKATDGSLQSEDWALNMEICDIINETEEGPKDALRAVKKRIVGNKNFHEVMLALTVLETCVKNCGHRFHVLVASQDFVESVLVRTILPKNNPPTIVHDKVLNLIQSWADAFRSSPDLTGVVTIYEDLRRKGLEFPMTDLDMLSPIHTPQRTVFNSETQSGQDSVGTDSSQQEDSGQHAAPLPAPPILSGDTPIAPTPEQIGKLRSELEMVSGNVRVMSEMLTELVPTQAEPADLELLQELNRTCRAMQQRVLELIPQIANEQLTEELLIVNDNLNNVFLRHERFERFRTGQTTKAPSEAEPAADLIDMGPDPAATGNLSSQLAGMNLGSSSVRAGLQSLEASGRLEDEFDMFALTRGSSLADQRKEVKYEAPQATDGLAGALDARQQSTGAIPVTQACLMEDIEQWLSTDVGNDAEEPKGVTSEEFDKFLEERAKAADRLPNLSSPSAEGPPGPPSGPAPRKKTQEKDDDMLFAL
UniProt O43399: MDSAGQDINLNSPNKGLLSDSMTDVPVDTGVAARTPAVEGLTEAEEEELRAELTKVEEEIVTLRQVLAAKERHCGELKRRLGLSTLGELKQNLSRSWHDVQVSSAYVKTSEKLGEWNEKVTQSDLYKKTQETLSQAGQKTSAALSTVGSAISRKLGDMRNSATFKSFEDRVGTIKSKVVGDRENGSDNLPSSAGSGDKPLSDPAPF

log2 fold change, inactive:
TOX4 (UniProt O94842) 0.036
TPD52L1 (UniProt Q16890) -0.017
TNPO3 (UniProt Q9Y5L0) 0.026
TPM1 (UniProt H7BYY1) -0.009
TOLLIP (UniProt Q9H0E2) 0.037
TRA2B (UniProt P62995) 0.037
TP53BP1 isoform 2 (UniProt Q12888) 0.014
TRIAP1 (UniProt O43715) -0.039
TRIP10 (UniProt Q15642) -0.003
TPM4 isoform 2 (UniProt P67936) 0.063
TSEN2 (UniProt Q8NCE0) 0.212
TNFRSF8 (UniProt P28908) -0.12
TPM2 (UniProt P07951) 0.119
TPX2 (UniProt Q9ULW0) 0.121
TPST2 (UniProt O60704) 0.024
TOR1A (UniProt O14656) -0.012
TRMT13 (UniProt Q9NUP7) -0.006
TRMT1L (UniProt Q7Z2T5) 0.072
TPMT (UniProt P51580) -0.059
TPI1 (UniProt P60174) -0.018
TOR4A (UniProt Q9NXH8) 0.1
TNKS1BP1 (UniProt Q9C0C2) -0.036
TRAPPC11 (UniProt Q7Z392) -0.033
TRIM32 (UniProt Q13049) -0.011
TOMM22 (UniProt Q9NS69) 0.116
TOMM5 isoform 2 (UniProt Q8N4H5) -0.053
TOM1 isoform 2 (UniProt O60784) -0.002
TRAPPC2L (UniProt Q9UL33) 0.005
TRIP10 isoform 2 (UniProt Q15642) -0.067
TPD52L2 isoform 7 (UniProt O43399) -0.007
TPM4, A0A2R8Y5V9 0.011
TOM1L1 (UniProt O75674) -0.086

Fetched one by one from the list above (2):
log2 fold change, inactive:
TPMT (UniProt P51580) -0.059
TRIM32 (UniProt Q13049) -0.011
